Data source: PubChem BioAssay AID1259254 (NCATS, 2017)
Screen: 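Genome-wide screen for genes that prevent DNA re-replication in cancer cells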 (primary screen). Cells: human HCT116 colorectal cancer cells. Reagent: single siRNA against human genes. Duration: 3 days. Read-out: 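Imaged Hoechst DNA stain sorts each cell into a cycle phase by DNA amount; per plate, G2 fraction set to 0% for non-targeting and 100% for GMNN siRNA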. Reading the numbers: G2 robust z-score and G2 cells, % of GMNN control: higher = more G2 cells, more excess DNA replication; raw share of cells in G2: higher = larger share of cells with G2 DNA content. Call rule: 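Active siRNAs have a G2 robust z of 5 or more median absolute deviations over the median, which in these data means about 38% or higher of GMNN control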.
The whole screen tested about 59,000 reagents; shown is an unselected part. About 1,550 of all reagents (2.6%) were called active. 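G2 share is only a proxy for re-replication; each gene was hit by three separate siRNAs, and active genes were retested.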 The raw values are shown without normalisation. The numbers tell different reagents against one gene apart. The record does not give: the amount of reagent.

gene | reagent no. | G2 robust z-score | G2 cells, % of GMNN control | raw share of cells in G2 (%) | Call
TTC38 (tetratricopeptide repeat domain 38) | 1 | -1.32 | -6.32 | 2.1 | inactive
TTC38 (tetratricopeptide repeat domain 38) | 2 | -0.934 | -3.6 | 2.65 | inactive
TTC38 (tetratricopeptide repeat domain 38) | 3 | 0.843 | 8.9 | 5.98 | inactive
GRAMD4 (GRAM domain containing 4) | 1 | 1.63 | 14.5 | 10.7 | inactive
GRAMD4 (GRAM domain containing 4) | 2 | 3.03 | 24.3 | 14.2 | inactive
GRAMD4 (GRAM domain containing 4) | 3 | -0.983 | -3.95 | 1.7 | inactive
MRPL4 (mitochondrial ribosomal protein L4) | 1 | 1.68 | 14.8 | 9.51 | inactive
MRPL4 (mitochondrial ribosomal protein L4) | 2 | 7.68 | 57 | 26.1 | active
MRPL4 (mitochondrial ribosomal protein L4) | 3 | -1.48 | -7.47 | 0.898 | inactive
SMLR1 (small leucine rich protein 1) | 1 | -0.45 | -0.197 | 3.21 | inactive
SMLR1 (small leucine rich protein 1) | 2 | 0.187 | 4.28 | 5.2 | inactive
SMLR1 (small leucine rich protein 1) | 3 | 3.65 | 28.6 | 14.1 | inactive
LINC00615 (long independently transcribed non-coding RNA 615) | 1 | 0.423 | 5.95 | 5.97 | inactive
LINC00615 (long independently transcribed non-coding RNA 615) | 2 | 1.25 | 11.8 | 8.19 | inactive
LINC00615 (long independently transcribed non-coding RNA 615) | 3 | -1.09 | -4.67 | 2.85 | inactive
WNT6 (Wnt family member 6) | 1 | -0.911 | -3.44 | 2.98 | inactive
WNT6 (Wnt family member 6) | 2 | -0.891 | -3.3 | 4.2 | inactive
WNT6 (Wnt family member 6) | 3 | -0.00708 | 2.92 | 5.44 | inactive

Records above whose gene name starts with G or g (3):
gene | reagent no. | G2 robust z-score | G2 cells, % of GMNN control | raw share of cells in G2 (%) | Call
GRAMD4 (GRAM domain containing 4) | 1 | 1.63 | 14.5 | 10.7 | inactive
GRAMD4 (GRAM domain containing 4) | 2 | 3.03 | 24.3 | 14.2 | inactive
GRAMD4 (GRAM domain containing 4) | 3 | -0.983 | -3.95 | 1.7 | inactive

Additional records follow.
gene | reagent no. | G2 robust z-score | G2 cells, % of GMNN control | raw share of cells in G2 (%) | Call
GBX2 (gastrulation brain homeobox 2) | 1 | 0.23 | 4.59 | 5.29 | inactive
GBX2 (gastrulation brain homeobox 2) | 2 | 5.28 | 40.1 | 19.8 | active
GBX2 (gastrulation brain homeobox 2) | 3 | -0.331 | 0.64 | 5.51 | inactive
CT45A3 (cancer/testis antigen family 45 member A3) | 1 | -0.387 | 0.242 | 3.72 | inactive
CT45A3 (cancer/testis antigen family 45 member A3) | 2 | -0.443 | -0.147 | 3.36 | inactive
CT45A3 (cancer/testis antigen family 45 member A3) | 3 | -0.378 | 0.306 | 3.22 | inactive
RTN3 (reticulon 3) | 1 | 0.462 | 6.22 | 8.14 | inactive
RTN3 (reticulon 3) | 2 | 1.22 | 11.6 | 8.78 | inactive
RTN3 (reticulon 3) | 3 | -0.448 | -0.183 | 3.34 | inactive
NRCAM (neuronal cell adhesion molecule) | 1 | -1.02 | -4.24 | 3.03 | inactive
NRCAM (neuronal cell adhesion molecule) | 2 | -0.00583 | 2.93 | 4.2 | inactive
NRCAM (neuronal cell adhesion molecule) | 3 | -0.544 | -0.859 | 4.88 | inactive
WDR54 (WD repeat domain 54) | 1 | -0.416 | 0.0407 | 4.12 | inactive
WDR54 (WD repeat domain 54) | 2 | -0.714 | -2.05 | 2.85 | inactive
WDR54 (WD repeat domain 54) | 3 | -0.785 | -2.55 | 1.63 | inactive
STRN3 (striatin 3) | 1 | 0.156 | 4.06 | 4.53 | inactive
STRN3 (striatin 3) | 2 | 7.69 | 57.1 | 25.7 | active
STRN3 (striatin 3) | 3 | -0.217 | 1.44 | 5.09 | inactive
NEU3 (neuraminidase 3) | 1 | -0.632 | -1.48 | 4.4 | inactive
NEU3 (neuraminidase 3) | 2 | -0.314 | 0.757 | 4.45 | inactive
NEU3 (neuraminidase 3) | 3 | -0.115 | 2.16 | 3.98 | inactive
KCNN3 (potassium calcium-activated channel subfamily N member 3) | 1 | -0.422 | -0.00257 | 5.29 | inactive
KCNN3 (potassium calcium-activated channel subfamily N member 3) | 2 | 0.514 | 6.58 | 7.01 | inactive
KCNN3 (potassium calcium-activated channel subfamily N member 3) | 3 | 5.22 | 39.7 | 19.9 | active
ARMC3 (armadillo repeat containing 3) | 1 | 1.52 | 13.6 | 8.52 | inactive
ARMC3 (armadillo repeat containing 3) | 2 | 0.397 | 5.76 | 5.1 | inactive
ARMC3 (armadillo repeat containing 3) | 3 | -0.113 | 2.17 | 3.89 | inactive
MTNAP1 (mitochondrial nucleoid associated protein 1) | 1 | -0.0074 | 2.92 | 5.64 | inactive
MTNAP1 (mitochondrial nucleoid associated protein 1) | 2 | 1.08 | 10.6 | 8.51 | inactive
MTNAP1 (mitochondrial nucleoid associated protein 1) | 3 | -0.138 | 1.99 | 3.77 | inactive
